Measured values: paper PMC8880992
No constants are given. Whether binding was seen depends on the method and setting. In cells and extracts the contact can be indirect. Some entries that bind do so weakly or less than the wild type. For some of these results: Tags and fused reporters may be left off the sequences shown.

The chains behind the UniProt entries cited, without tags or fusion partners.
UniProt P51965: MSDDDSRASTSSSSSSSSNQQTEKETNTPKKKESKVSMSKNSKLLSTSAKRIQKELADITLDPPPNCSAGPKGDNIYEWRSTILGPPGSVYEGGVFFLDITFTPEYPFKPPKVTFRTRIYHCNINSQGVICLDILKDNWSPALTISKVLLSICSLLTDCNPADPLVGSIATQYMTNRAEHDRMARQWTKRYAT
UniProt Q02248: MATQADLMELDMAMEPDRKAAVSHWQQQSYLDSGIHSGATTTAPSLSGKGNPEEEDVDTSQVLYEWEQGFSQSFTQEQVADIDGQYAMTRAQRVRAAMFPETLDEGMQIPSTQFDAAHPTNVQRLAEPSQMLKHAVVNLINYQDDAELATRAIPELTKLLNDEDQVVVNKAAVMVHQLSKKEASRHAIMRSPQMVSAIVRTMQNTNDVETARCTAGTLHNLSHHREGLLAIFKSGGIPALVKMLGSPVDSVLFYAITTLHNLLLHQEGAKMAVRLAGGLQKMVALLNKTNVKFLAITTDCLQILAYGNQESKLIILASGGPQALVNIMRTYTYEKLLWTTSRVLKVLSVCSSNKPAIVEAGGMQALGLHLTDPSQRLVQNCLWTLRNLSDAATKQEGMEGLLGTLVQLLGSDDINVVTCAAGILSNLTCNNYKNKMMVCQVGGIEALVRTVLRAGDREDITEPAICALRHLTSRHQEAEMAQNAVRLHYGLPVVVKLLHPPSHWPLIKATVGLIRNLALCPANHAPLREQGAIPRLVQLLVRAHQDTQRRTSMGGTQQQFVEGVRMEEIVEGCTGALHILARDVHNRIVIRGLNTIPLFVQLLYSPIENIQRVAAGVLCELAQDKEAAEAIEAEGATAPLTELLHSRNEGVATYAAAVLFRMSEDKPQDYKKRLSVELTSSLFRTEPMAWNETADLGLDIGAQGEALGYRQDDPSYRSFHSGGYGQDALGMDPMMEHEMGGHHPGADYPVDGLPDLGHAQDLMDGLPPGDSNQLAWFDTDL

How the values were obtained:
[1] = target: T1, endogenous Mks1 of mIMCD3 cells (mouse (endogenous in mIMCD3)) (UniProt Q5SW45); experiment: co-IP; anti-MKS1 immunoprecipitation from shScr and shUbe2e1 knockdown mIMCD3 cells, immunoblot for β-catenin
T1 sequence: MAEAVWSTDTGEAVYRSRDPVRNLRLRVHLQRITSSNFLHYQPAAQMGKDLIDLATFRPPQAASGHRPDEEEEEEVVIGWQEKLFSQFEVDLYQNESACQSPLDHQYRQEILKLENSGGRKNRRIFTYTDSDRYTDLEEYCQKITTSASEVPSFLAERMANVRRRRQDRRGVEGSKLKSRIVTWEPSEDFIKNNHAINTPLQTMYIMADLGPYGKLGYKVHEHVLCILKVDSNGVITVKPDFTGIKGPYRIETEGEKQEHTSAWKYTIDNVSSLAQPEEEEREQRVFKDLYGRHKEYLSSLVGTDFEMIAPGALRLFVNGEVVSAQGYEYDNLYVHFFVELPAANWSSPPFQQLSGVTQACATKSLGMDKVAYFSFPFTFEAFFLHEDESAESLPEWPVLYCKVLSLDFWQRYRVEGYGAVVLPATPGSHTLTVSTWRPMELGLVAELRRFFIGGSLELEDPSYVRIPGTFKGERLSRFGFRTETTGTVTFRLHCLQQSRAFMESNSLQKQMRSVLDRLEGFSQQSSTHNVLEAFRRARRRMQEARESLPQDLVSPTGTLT

[2] = target: GST-UBE2E1 (human) (UniProt P51965); experiment: pull-down; GST-UBE2E1 purified from bacterial extracts as bait; endogenous MKS1 from ARPE19 whole cell extract; only the target purified
[3] = target: endogenous UBE2E1 (cells not stated) (UniProt P51965); experiment: co-IP; exogenously expressed cmyc-MKS1 precipitated with endogenous UBE2E1 by anti-UBE2E1; controls pre-immune serum and an irrelevant antibody; cells not given
[4] = target: T2, endogenous MKS1 (cells not stated) (UniProt Q9NXB0); experiment: co-IP; endogenous proteins from whole cell extract precipitated by rabbit polyclonal anti-MKS1; controls pre-immune serum and an irrelevant antibody; cells not given
T2 sequence: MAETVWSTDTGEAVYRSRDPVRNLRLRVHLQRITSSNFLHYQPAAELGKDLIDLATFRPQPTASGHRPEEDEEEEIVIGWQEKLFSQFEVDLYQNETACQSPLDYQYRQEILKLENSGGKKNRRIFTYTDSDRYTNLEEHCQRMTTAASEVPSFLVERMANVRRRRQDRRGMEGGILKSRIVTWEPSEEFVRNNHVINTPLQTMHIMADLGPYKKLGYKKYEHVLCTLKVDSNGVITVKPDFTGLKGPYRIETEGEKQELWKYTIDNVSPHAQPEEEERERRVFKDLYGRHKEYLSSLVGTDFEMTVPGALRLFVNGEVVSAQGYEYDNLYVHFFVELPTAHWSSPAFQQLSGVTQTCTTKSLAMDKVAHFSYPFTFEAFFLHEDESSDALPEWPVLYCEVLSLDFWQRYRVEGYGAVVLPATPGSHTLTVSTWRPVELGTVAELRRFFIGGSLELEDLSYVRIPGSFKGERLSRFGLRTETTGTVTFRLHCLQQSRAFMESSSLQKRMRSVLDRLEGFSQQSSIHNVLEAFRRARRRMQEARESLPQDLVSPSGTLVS

For “endogenous β-catenin of mIMCD3 cells (from UniProt Q02248 1-781)”, which binding [1] is on record?
The binding was “binds”.

B1: endogenous MKS1 of ARPE19 cells (protein, UniProt Q9NXB0 1-559)
chain: T2 sequence
How did the binding [2] turn out when B1 was run?
Its binding is “binds”.

B2: cmyc-MKS1 (protein, UniProt Q9NXB0-1 1-559)
chain: T2 sequence
B2 was tested. Which binding [3] did it give?
Its binding is “binds”.

B3: endogenous RNF34 (30 and 40 kDa isoforms) (enzyme, UniProt Q969K3 1-372)
chain: MKAGATSMWASCCGLLNEVMGTGAVRGQQSAFAGATGPFRFTPNPEFSTYPPAATEGPNIVCKACGLSFSVFRKKHVCCDCKKDFCSVCSVLQENLRRCSTCHLLQETAFQRPQLMRLKVKDLRQYLILRNIPIDTCREKEDLVDLVLCHHGLGSEDDMDTSSLNSSRSQTSSFFTRSFFSNYTAPSATMSSFQGELMDGDQTSRSGVPAQVQSEITSANTEDDDDDDDEDDDDEEENAEDRNPGLSKERVRASLSDLSSLDDVEGMSVRQLKEILARNFVNYSGCCEKWELVEKVNRLYKENEENQKSYGERLQLQDEEDDSLCRICMDAVIDCVLLECGHMVTCTKCGKRMSECPICRQYVVRAVHVFKS
B3 was tested. Which binding [4] did it give?
Its binding is “binds”.
